The text below walks through data of article PMC5727492.

The data set concerns the target T1, McMYB10 (UniProt W5S2D4).
T1 sequence (looked up, limits assumed): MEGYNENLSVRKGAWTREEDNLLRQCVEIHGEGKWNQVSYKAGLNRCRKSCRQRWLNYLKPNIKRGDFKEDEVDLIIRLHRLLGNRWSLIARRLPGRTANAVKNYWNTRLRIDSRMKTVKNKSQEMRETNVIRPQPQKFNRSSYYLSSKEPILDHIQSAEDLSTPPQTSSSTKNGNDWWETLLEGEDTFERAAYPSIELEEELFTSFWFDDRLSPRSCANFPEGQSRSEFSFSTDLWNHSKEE
Kind of data set: EMSA. Particulars: 100x unlabeled probe competes, LightShift Chemiluminescent EMSA Kit per manufacturer's protocol, about 10 ug purified McMYB10 per reaction, pH and temperature not stated, recombinant protein, protein details: MBP (pMAL-C2X), label: biotin. (Mobility shift assays separate free from complexed probe on a gel.)

Construct, isoform or probe ends are uncertain for at least one entry. A weaker result is weaker than the reference pair of the same experiment. Tags and fusion partners may be left off the protein sequences shown.

Turning to “AATATATTTATGGATAAATTATGATTA (double strand) [MYBST1 probe]”, the binding result (stronger than MYB1LEPR) is on record as “binds”.

Turning to “CAGAATTGAAAAACTAACATTTTAATGTG (double strand) [MYB1LEPR probe]”, the binding result (bound, but weaker than the other three probes) is reported as “binds more weakly”.

“GTTGAGCAGGTAACAAATGAAGTCAAG (double strand) [MYBGAHV probe]”: the binding result (stronger than MYB1LEPR) is recorded as “binds”.

Turning to “TTATTATTATCTATAACCATTACTATTTATC (double strand) [MYB1AT probe]”, for the setting “stronger than MYB1LEPR”, the binding result is “binds”.
